Results deposited as PubChem BioAssay AID1224827 (NIAID, 2016)
The deposit covers about 3,800 reagents; shown is an unselected part. Of all reagents, about 2,200 (57%) were called active. 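Active means a strong reporter change in either direction; calls are per siRNA, not per gene; qiagen siRNAs gave weaker effects.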 A number with no mark means an inactive call. The numbers tell different reagents against one gene apart. Further read-outs or replicates are left out here. No sequences are given here.

- Assay: 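Confirm genes whose knock-down changes LPS-driven TNF promoter activity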 (follow-up of hits)
- System: RAW264.7 G9 mouse macrophage reporter clone
- Reagents: single siRNA against mouse genes, 100 nM siRNA
- Timing: siRNA for 2 days, then LPS about 16 h
- Challenge: bacterial lipopolysaccharide (LPS), 10 ng/ml, cells fixed after overnight (about 16 h) stimulation
- Read-out: 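Imaged nuclear TNF reporter intensity, background removed, scaled per plate and to non-targeting control wells, as z-scores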
- Scale: TNF reporter z-score, mean: higher = stronger Tnf promoter reporter signal; gene median z, three same-vendor siRNAs: higher = stronger Tnf reporter signal for the gene
- Rule for the call: 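An siRNA is called active when its mean z-score over replicates is at least +2 or at most -2; control wells get no call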

no.	Gene	siRNA no.	TNF reporter z-score, mean	gene median z, three same-vendor siRNAs
1	Map1a (microtubule-associated protein 1 A)	1	0.212	-0.398
2	Map1a (microtubule-associated protein 1 A)	2	0.559	-0.398
3	Map1a (microtubule-associated protein 1 A)	3	-3.57 (active)	-0.398
4	Cyp4a10 (cytochrome P450, family 4, subfamily a, polypeptide 10)	1	-3.48 (active)	-4.04
5	Cyp4a10 (cytochrome P450, family 4, subfamily a, polypeptide 10)	2	-4.04 (active)	-4.04
6	Cyp4a10 (cytochrome P450, family 4, subfamily a, polypeptide 10)	3	-4.87 (active)	-4.04
7	Cyp4a10 (cytochrome P450, family 4, subfamily a, polypeptide 10)	4	4.32 (active)	0.712
8	Cyp4a10 (cytochrome P450, family 4, subfamily a, polypeptide 10)	5	4.14 (active)	0.712
9	Cyp4a10 (cytochrome P450, family 4, subfamily a, polypeptide 10)	6	-2.45 (active)	0.712
10	Irf2bpl (interferon regulatory factor 2 binding protein-like)	1	-0.509	-1.73
11	Irf2bpl (interferon regulatory factor 2 binding protein-like)	2	-1.12	-1.73
12	Irf2bpl (interferon regulatory factor 2 binding protein-like)	3	-2.91 (active)	-1.73
13	Irf2bpl (interferon regulatory factor 2 binding protein-like)	4	4.26 (active)	1.93
14	Irf2bpl (interferon regulatory factor 2 binding protein-like)	5	2.89 (active)	1.93
15	Irf2bpl (interferon regulatory factor 2 binding protein-like)	6	0.966	1.93
16	Rdh16f2 (RDH16 family member 2)	1	6.56 (active)	-3.4
17	Rdh16f2 (RDH16 family member 2)	2	-3.4 (active)	-3.4
18	Rdh16f2 (RDH16 family member 2)	3	-4.36 (active)	-3.4
19	Rdh16f2 (RDH16 family member 2)	4	1.19	-0.638
20	Rdh16f2 (RDH16 family member 2)	5	-0.0595	-0.638
21	Rdh16f2 (RDH16 family member 2)	6	-0.638	-0.638
22	Cdx1 (caudal type homeobox 1)	1	-3.79 (active)	-4.49
23	Cdx1 (caudal type homeobox 1)	2	-5.13 (active)	-4.49
24	Cdx1 (caudal type homeobox 1)	3	-5.21 (active)	-4.49
25	Cdx1 (caudal type homeobox 1)	4	4.6 (active)	1.12
26	Cdx1 (caudal type homeobox 1)	5	3.38 (active)	1.12
27	Cdx1 (caudal type homeobox 1)	6	-1.58	1.12
28	Orc5 (origin recognition complex, subunit 5)	1	-3.46 (active)	-3.86
29	Orc5 (origin recognition complex, subunit 5)	2	-3.44 (active)	-3.86
30	Orc5 (origin recognition complex, subunit 5)	3	-4.46 (active)	-3.86
31	Orc5 (origin recognition complex, subunit 5)	4	2.71 (active)	0.797
32	Orc5 (origin recognition complex, subunit 5)	5	2.02 (active)	0.797
33	Orc5 (origin recognition complex, subunit 5)	6	-0.623	0.797
34	Slco2b1	1	11.8 (active)	3.8
35	Slco2b1	2	2.66 (active)	3.8
36	Slco2b1	3	2.14 (active)	3.8
37	Slco2b1	4	2.67 (active)	0.888
38	Slco2b1	5	1.33	0.888
39	Slco2b1	6	-1.61	0.888
40	Zfp428 (zinc finger protein 428)	1	2.81 (active)	-2.62
41	Zfp428 (zinc finger protein 428)	2	-2.66 (active)	-2.62
42	Zfp428 (zinc finger protein 428)	3	-3.34 (active)	-2.62
43	Zfp428 (zinc finger protein 428)	4	1.25	-0.956
44	Zfp428 (zinc finger protein 428)	5	-1.12	-0.956
45	Zfp428 (zinc finger protein 428)	6	-1.58	-0.956
46	Stmn3 (stathmin-like 3)	1	-0.847	-2.39
47	Stmn3 (stathmin-like 3)	2	-2.39 (active)	-2.39
48	Stmn3 (stathmin-like 3)	3	-5.07 (active)	-2.39
49	Stmn3 (stathmin-like 3)	4	0.281	-0.0979
50	Stmn3 (stathmin-like 3)	5	0.668	-0.0979
51	Stmn3 (stathmin-like 3)	6	-2.26 (active)	-0.0979
52	Klra22 (killer cell lectin-like receptor subfamily A, member 22)	1	-2.36 (active)	-3.29
53	Klra22 (killer cell lectin-like receptor subfamily A, member 22)	2	-2.47 (active)	-3.29
54	Klra22 (killer cell lectin-like receptor subfamily A, member 22)	3	-3.83 (active)	-3.29
55	Klra22 (killer cell lectin-like receptor subfamily A, member 22)	4	1.14	-0.164
56	Klra22 (killer cell lectin-like receptor subfamily A, member 22)	5	-0.232	-0.164
57	Klra22 (killer cell lectin-like receptor subfamily A, member 22)	6	-0.389	-0.164
58	Dtx3 (deltex 3, E3 ubiquitin ligase)	1	4.46 (active)	-3.94
59	Dtx3 (deltex 3, E3 ubiquitin ligase)	2	-3.99 (active)	-3.94
60	Dtx3 (deltex 3, E3 ubiquitin ligase)	3	-4.18 (active)	-3.94
61	Dtx3 (deltex 3, E3 ubiquitin ligase)	4	-0.469	-2.26
62	Dtx3 (deltex 3, E3 ubiquitin ligase)	5	-2.8 (active)	-2.26
63	Dtx3 (deltex 3, E3 ubiquitin ligase)	6	-3.29 (active)	-2.26
64	Nr2f2 (nuclear receptor subfamily 2, group F, member 2)	1	6.49 (active)	0.794
65	Nr2f2 (nuclear receptor subfamily 2, group F, member 2)	2	1.34	0.794
66	Nr2f2 (nuclear receptor subfamily 2, group F, member 2)	3	-2.25 (active)	0.794
67	Nr2f2 (nuclear receptor subfamily 2, group F, member 2)	4	2.14 (active)	-0.768
68	Nr2f2 (nuclear receptor subfamily 2, group F, member 2)	5	-1.19	-0.768
69	Nr2f2 (nuclear receptor subfamily 2, group F, member 2)	6	-1.59	-0.768
70	Txnl4a (thioredoxin-like 4A)	1	3.49 (active)	-3.53
71	Txnl4a (thioredoxin-like 4A)	2	-3.53 (active)	-3.53
72	Txnl4a (thioredoxin-like 4A)	3	-4.46 (active)	-3.53
73	Txnl4a (thioredoxin-like 4A)	4	1.24	-0.374
74	Txnl4a (thioredoxin-like 4A)	5	-0.301	-0.374
75	Txnl4a (thioredoxin-like 4A)	6	-1.84	-0.374
